The target of assay [1] is T1, CBAP deletion mutant M8, GFP-tagged (human) (UniProt Q8N9M5).
T1 sequence: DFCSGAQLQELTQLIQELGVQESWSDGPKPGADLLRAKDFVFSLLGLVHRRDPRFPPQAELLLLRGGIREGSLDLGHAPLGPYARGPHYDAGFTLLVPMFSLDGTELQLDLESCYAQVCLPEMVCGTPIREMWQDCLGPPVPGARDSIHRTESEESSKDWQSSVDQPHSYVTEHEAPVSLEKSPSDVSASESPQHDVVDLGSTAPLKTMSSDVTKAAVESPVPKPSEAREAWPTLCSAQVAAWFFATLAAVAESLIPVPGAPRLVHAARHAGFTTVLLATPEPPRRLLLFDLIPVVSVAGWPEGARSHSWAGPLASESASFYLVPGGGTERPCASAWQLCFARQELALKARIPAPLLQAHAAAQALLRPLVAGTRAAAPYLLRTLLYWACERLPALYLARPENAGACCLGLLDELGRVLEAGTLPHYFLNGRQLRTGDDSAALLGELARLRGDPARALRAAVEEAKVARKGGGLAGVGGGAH
Briefly: co-IP; CBAP-KO HEK293T co-transfected with full-length or truncated CBAP-GFP, myc-Akt1 and Flag-TSC2; anti-GFP or anti-Flag immunoprecipitates blotted.

Protein sequences, listed by entry. Tags and fused reporters are not part of them.
UniProt P49815: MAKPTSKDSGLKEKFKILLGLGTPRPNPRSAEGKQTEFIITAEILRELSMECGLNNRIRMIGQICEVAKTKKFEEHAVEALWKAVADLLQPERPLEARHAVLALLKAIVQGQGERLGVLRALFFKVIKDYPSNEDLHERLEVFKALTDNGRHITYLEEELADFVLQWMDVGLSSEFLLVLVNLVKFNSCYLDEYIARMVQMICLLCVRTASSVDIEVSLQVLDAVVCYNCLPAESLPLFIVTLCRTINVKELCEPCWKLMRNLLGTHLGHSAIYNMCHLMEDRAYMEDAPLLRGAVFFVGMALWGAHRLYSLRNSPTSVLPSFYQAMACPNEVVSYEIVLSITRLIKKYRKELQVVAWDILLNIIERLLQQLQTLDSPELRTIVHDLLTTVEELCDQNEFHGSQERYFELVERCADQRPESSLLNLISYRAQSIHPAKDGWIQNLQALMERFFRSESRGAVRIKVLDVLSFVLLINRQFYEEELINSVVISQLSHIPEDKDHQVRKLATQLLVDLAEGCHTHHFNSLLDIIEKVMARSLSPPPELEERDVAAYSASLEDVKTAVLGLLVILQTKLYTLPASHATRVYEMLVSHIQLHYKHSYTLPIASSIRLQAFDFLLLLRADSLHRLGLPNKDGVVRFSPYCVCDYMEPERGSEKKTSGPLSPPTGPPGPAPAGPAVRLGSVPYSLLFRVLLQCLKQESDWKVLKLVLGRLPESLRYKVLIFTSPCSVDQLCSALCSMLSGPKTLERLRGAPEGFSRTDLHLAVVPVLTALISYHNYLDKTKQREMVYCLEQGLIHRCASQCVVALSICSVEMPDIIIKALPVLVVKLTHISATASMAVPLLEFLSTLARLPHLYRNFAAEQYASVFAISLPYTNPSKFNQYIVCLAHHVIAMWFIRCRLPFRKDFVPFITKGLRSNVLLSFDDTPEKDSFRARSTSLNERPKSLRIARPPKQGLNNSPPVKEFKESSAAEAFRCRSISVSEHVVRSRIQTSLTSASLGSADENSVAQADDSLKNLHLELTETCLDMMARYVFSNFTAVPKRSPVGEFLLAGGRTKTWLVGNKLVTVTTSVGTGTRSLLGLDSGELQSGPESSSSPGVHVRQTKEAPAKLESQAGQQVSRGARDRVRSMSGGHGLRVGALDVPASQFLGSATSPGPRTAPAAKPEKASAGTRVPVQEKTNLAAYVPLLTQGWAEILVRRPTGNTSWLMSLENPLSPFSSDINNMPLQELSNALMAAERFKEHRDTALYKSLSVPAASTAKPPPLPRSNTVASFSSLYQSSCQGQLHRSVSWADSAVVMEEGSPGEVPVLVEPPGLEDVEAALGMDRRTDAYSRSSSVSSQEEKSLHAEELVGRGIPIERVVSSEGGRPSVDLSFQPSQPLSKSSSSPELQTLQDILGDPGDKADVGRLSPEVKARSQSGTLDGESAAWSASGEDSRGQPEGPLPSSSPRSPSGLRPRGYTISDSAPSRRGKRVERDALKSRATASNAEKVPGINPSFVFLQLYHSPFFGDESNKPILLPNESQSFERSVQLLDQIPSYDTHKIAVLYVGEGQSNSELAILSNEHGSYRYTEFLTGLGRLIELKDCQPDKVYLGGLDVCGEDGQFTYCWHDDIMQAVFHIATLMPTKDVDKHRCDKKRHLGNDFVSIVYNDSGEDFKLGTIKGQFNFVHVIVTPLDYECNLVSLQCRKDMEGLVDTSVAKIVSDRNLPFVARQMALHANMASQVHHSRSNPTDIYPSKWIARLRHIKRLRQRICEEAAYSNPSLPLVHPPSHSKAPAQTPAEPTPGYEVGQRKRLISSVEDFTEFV
UniProt P31749: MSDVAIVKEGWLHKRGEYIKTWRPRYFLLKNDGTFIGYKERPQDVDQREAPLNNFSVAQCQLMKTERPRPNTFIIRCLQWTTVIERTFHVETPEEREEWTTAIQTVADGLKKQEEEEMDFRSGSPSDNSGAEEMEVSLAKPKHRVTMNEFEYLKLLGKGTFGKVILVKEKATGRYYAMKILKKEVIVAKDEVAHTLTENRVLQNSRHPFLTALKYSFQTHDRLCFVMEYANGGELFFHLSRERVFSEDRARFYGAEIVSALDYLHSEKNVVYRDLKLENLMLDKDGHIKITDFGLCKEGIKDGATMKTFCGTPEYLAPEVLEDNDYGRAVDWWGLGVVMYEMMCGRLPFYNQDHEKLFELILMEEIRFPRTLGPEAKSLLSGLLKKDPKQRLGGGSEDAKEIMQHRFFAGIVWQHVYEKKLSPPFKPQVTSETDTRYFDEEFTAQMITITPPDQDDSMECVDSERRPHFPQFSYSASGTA

Assay [2] concerns the target T2, GFP-tagged full-length CBAP (human) (UniProt Q8N9M5).
T2 sequence: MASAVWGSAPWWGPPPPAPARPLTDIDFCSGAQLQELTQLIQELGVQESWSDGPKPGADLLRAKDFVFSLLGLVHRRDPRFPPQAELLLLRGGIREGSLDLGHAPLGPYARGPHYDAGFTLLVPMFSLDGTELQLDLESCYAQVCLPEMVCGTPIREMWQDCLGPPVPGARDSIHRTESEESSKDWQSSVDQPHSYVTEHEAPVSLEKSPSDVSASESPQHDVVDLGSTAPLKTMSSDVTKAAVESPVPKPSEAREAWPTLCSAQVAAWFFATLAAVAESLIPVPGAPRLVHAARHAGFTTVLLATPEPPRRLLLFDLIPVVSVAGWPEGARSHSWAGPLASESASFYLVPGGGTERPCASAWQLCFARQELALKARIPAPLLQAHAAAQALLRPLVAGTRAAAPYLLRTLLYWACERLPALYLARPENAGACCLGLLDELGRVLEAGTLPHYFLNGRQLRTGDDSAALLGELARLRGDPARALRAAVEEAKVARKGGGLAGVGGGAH
The description is as above.

The target in assay [3] is T2, GFP-tagged full-length CBAP (human). As to the kind of experiment: co-IP; HEK293T co-transfected with GFP or CBAP-GFP and Flag-TSC2, HA-Akt1 or myc-TSC1; anti-GFP immunoprecipitation, blot with tag-specific antibodies.
In assay [4] the target is TSC2 (endogenous) (human (endogenous in Jurkat, CCRF-CEM, HeLa)) (UniProt P49815). As to the kind of experiment: co-IP; anti-CBAP immunoprecipitation from lysates of Jurkat cells expressing GFP vector or GFP-N26-CBAP, immunoblot. Background: A western blot detects proteins with antibodies after separation by electrophoresis.

The results in this text go back to paper PMC10698277.

Results are given in words; binding and its absence hold for the method and conditions named. In cells and extracts the contact can be indirect. Some results given as binding are weak or reduced against the parent protein; the word gives no strength. Sequences can lack the tags named with a protein.

On to myc-Akt1 (from UniProt P31749 1-480), for which the binding entry in assay [1] and in assay [2] was “binds” throughout.

Take HA-Akt1 (from UniProt P31749 1-480): the binding entry in assay [3] is given as “binds”.

B1: Myc-TSC1 (protein, UniProt Q92574 1-1164)
chain: MAQQANVGELLAMLDSPMLGVRDDVTAVFKENLNSDRGPMLVNTLVDYYLETSSQPALHILTTLQEPHDKHLLDRINEYVGKAATRLSILSLLGHVIRLQPSWKHKLSQAPLLPSLLKCLKMDTDVVVLTTGVLVLITMLPMIPQSGKQHLLDFFDIFGRLSSWCLKKPGHVAEVYLVHLHASVYALFHRLYGMYPCNFVSFLRSHYSMKENLETFEEVVKPMMEHVRIHPELVTGSKDHELDPRRWKRLETHDVVIECAKISLDPTEASYEDGYSVSHQISARFPHRSADVTTSPYADTQNSYGCATSTPYSTSRLMLLNMPGQLPQTLSSPSTRLITEPPQATLWSPSMVCGMTTPPTSPGNVPPDLSHPYSKVFGTTAGGKGTPLGTPATSPPPAPLCHSDDYVHISLPQATVTPPRKEERMDSARPCLHRQHHLLNDRGSEEPPGSKGSVTLSDLPGFLGDLASEEDSIEKDKEEAAISRELSEITTAEAEPVVPRGGFDSPFYRDSLPGSQRKTHSAASSSQGASVNPEPLHSSLDKLGPDTPKQAFTPIDLPCGSADESPAGDRECQTSLETSIFTPSPCKIPPPTRVGFGSGQPPPYDHLFEVALPKTAHHFVIRKTEELLKKAKGNTEEDGVPSTSPMEVLDRLIQQGADAHSKELNKLPLPSKSVDWTHFGGSPPSDEIRTLRDQLLLLHNQLLYERFKRQQHALRNRRLLRKVIKAAALEEHNAAMKDQLKLQEKDIQMWKVSLQKEQARYNQLQEQRDTMVTKLHSQIRQLQHDREEFYNQSQELQTKLEDCRNMIAELRIELKKANNKVCHTELLLSQVSQKLSNSESVQQQMEFLNRQLLVLGEVNELYLEQLQNKHSDTTKEVEMMKAAYRKELEKNRSHVLQQTQRLDTSQKRILELESHLAKKDHLLLEQKKYLEDVKLQARGQLQAAESRYEAQKRITQVFELEILDLYGRLEKDGLLKKLEEEKAEAAEAAEERLDCCNDGCSDSMVGHNEEASGHNGETKTPRPSSARGSSGSRGGGGSSSSSSELSTPEKPPHQRAGPFSSRWETTMGEASASIPTTVGSLPSSKSFLGMKARELFRNKSESQCDEDGMTSSLSESLKTELGKDLGVEAKIPLNLDGPHPSPPTPDSVGQLHIMDYNETHHEHS
As for B1, in assay [3], the binding entry is “no binding”.

With MASAVWGSAPWWGPPPPAPARPLTDI (peptide, UniProt Q8N9M5 1-26) [GFP-N26-CBAP], in assay [4], the binding result is recorded as “binds”.
